The list is a part of this screen's results and no random one: it is rich in T/C values a quarter to a half above the control, in often repeated tests (any T/C) and in doses without a T/C. Other doses and runs of a compound stand elsewhere. T/C: endpoint of the treated group in % of that of the vehicle group. Some entries give survivors of the animals treated and no T/C: the source files T/C as zero there, which appears to mark a toxic dose or a test without result, not a measured value. Some doses without a T/C left all or most animals alive at the check, yet need not have been tolerated: the source hardly ever lists a survival T/C far under the control, and the zero likely stands for such cases as well. Survivors were counted at the toxicity check, usually on the fifth day, unless a day is given; later deaths do not show. Schedules are NCI's codes, read here as Q, the interval in days (D) or hours (H), X, the number of doses. Some schedule codes hold Z or #, which are not explained here. Some entries hold several experiments; their values stand side by side, smallest first. Where survival is the endpoint, this PubChem deposit counts one and a half times the control or more as active, and values a quarter to a half above the control carry no call in these data; other NCI protocols may use other cut-offs.
Test system: L1210 leukemia ip in BDF1 mice, survival T/C
Test: NCI In Vivo Anticancer Drug Screen. Data for tumor model L1210 Leukemia (intraperitoneal) in B6D2F1 (BDF1) mice
Details: T/C endpoint: mean survival time, higher T/C = longer survival
[1] = dose: 400.0 mg/kg/injection, schedule: Q01DX001 (ip), vehicle: saline
[2] = dose: 200.0 mg/kg/injection, schedule: Q04DX003 (ip), vehicle: saline
[3] = dose: 400.0 mg/kg/injection, schedule: Q04DX003 (ip), vehicle: saline
[4] = dose: 400.0 mg/kg/injection, schedule: Q01DX009 (ip), vehicle: Klucel (hydroxypropylcellulose) (HPC)
[5] = dose: 400.0 mg/kg/injection, schedule: Q04DX003 (ip), vehicle: gum acacia
[6] = dose: 100.0 mg/kg/injection, schedule: Q01DX009 (ip), vehicle: other
[7] = dose: 400.0 mg/kg/injection, schedule: Q04DX003 (ip), vehicle: Klucel (hydroxypropylcellulose) (HPC)

In the case of `CCC(CC)NC(CC)CO` (stereo not given), the survivor count (dose: 300.0 mg/kg/injection, schedule: Q01DX001 (ip), vehicle: carboxymethylcellulose (CMC)) was 0 of 6.

In the case of `C/C(=N/NC(N)=O)C1CC2CCC1C2` (stereo not given), the survivor count [1] was 0 of 6 and the survivor count (dose: 400.0 mg/kg/injection, schedule: Q01DX009 (ip), vehicle: gum acacia) was 2 of 6.

In the case of `CC(C)NC(=O)CCl`, the survivor count [2] was 5 of 6 and the survivor count [3] was 0 of 6.

In the case of `Cc1ccc(N2CCNCC2)cc1`, the survivor count (dose: 100.0 mg/kg/injection, schedule: Q04DX003 (ip), vehicle: saline) was 0 of 6, the survivor count [2] was 0 of 6 and the survivor count [3] was 0 of 6.

In the case of `COc1ccc(OC)c(/C=C(\C#N)c2ccc([N+](=O)[O-])cc2)c1`, the survivor count (dose: 16.6 mg/kg/injection, schedule: Q01DX009 (ip), vehicle: saline with Tween-80) was 6 of 6, the survivor count (dose: 25.0 mg/kg/injection, schedule: Q01DX009 (ip), vehicle: saline with Tween-80) was 6 of 6 and the survivor count (dose: 37.5 mg/kg/injection, schedule: Q01DX009 (ip), vehicle: saline with Tween-80) was 6 of 6.

`CC1=C(C)C(=O)c2c(OC(=O)c3ccccc3)ccc(OC(=O)c3ccccc3)c2C1=O` was tested, and the survivor count [2] was 6 of 6 and the survivor count (dose: 400.0 mg/kg/injection, schedule: Q01DX009 (ip), vehicle: saline) was 3 of 6.

In the case of `CC1CCN(c2ccc([N+](=O)[O-])cc2[N+](=O)[O-])CC1`, the survivor count [4] was 5 of 6.

For `O=C(Oc1ccc(S(=O)(=O)F)cc1F)c1ccccc1Cl`, the survivor count (dose: 400.0 mg/kg/injection, schedule: Q04DX002 (ip), vehicle: Klucel (hydroxypropylcellulose) (HPC)) was 3 of 3.

With `CCO/C=C1\SC(=S)N(c2cccc(C)c2)C1=O` the survivor count [4] was 5 of 6.

In the case of `CC1CN=C(c2ccc(NC(=O)c3ccc(C(=O)Nc4ccc(C5=NCC(C)N5)cc4)c(N)c3)cc2)N1` (stereo not given), the survivor count (dose: 60.0 mg/kg/injection, schedule: Q01DX Z (ip), vehicle: saline) was 3 of 6 and the survivor count (dose: 120.0 mg/kg/injection, schedule: Q01DX Z (ip), vehicle: saline) was 0 of 6.

For `O=c1[nH][nH]c(=O)c2cc3ccccc3cc12`, the survivor count (dose: 250.0 mg/kg/injection, schedule: Q01DX009 (ip), vehicle: Klucel (hydroxypropylcellulose) (HPC)) was 3 of 6.

`CNC(=O)OCC1=CC(=O)C=C(OC)C1=O` was tested, and the survivor count (dose: 12.5 mg/kg/injection, schedule: Q01DX009 (ip), vehicle: gum acacia) was 6 of 6, the survivor count (dose: 25.0 mg/kg/injection, schedule: Q01DX009 (ip), vehicle: gum acacia) was 0 of 6 and the survivor count (dose: 50.0 mg/kg/injection, schedule: Q04DX003 (ip), vehicle: gum acacia) was 0 of 6. The survivor count (dose: 100.0 mg/kg/injection, schedule: Q04DX003 (ip), vehicle: gum acacia) was 0 of 6, the survivor count (dose: 200.0 mg/kg/injection, schedule: Q04DX003 (ip), vehicle: gum acacia) was 2 of 6 and the survivor count [5] was 1 of 6.

For `O=C(O)C(=S)Cc1cn[nH]n1`, the survivor count (dose: 200.0 mg/kg/injection, schedule: Q01DX001 (ip), vehicle: saline) was 4 of 4.

In the case of `COC(=O)c1ccccc1C1=C(O)C(=O)C(c2ccccc2C(=O)OC)=C(O)C1=O`, the survivor count [4] was 0 of 6.

In the case of `CCOC(=O)C1CCc2ccccc2CC1`, the survivor count (dose: 400.0 mg/kg/injection, schedule: Q04DX003 (ip), vehicle: acetone) was 0 of 6.

For `Cc1ccc2c(C)nc(N=C(N)N)nc2c1`, the survivor count (dose: 150.0 mg/kg/injection, schedule: Q01DX001 (ip), vehicle: saline) was 3 of 6 and the survivor count (dose: 300.0 mg/kg/injection, schedule: Q01DX001 (ip), vehicle: saline) was 0 of 6.

In the case of `CCCCCCC/C=N\N=C(N)N`, the survivor count (dose: 120.0 mg/kg/injection, schedule: Q01DX Z (ip), vehicle: carboxymethylcellulose (CMC)) was 1 of 6.

With `CCCCn1nnc2ccc([N+](=O)[O-])cc2c1=O` the survivor count [4] was 0 of 6.

`O=C(O)CCCc1cccc2ccccc12` was tested, and the survivor count [5] was 1 of 6.

With `CCC(=O)c1cc2c(c3c1CCCC3)CCCC2` the survivor count (dose: 50.0 mg/kg/injection, schedule: Q01DX009 (ip), vehicle: other) was 3 of 3 and the survivor count [6] was 3 of 3.

`O=[N+]([O-])c1c(Cl)sc(Cl)c1[N+](=O)[O-]` was tested, and the survivor count (dose: 25.0 mg/kg/injection, schedule: Q04DX003 (ip), vehicle: Klucel (hydroxypropylcellulose) (HPC)) was 0 of 6, the survivor count (dose: 100.0 mg/kg/injection, schedule: Q04DX003 (ip), vehicle: Klucel (hydroxypropylcellulose) (HPC)) was 0 of 6 and the survivor count (dose: 200.0 mg/kg/injection, schedule: Q04DX003 (ip), vehicle: Klucel (hydroxypropylcellulose) (HPC)) was 0 of 6. The survivor count [7] was 0 of 6.

`CC(=O)Oc1c2ccccc2cc2ccccc12` was tested, and the T/C (dose: 200.0 mg/kg/injection, schedule: Q04DX002 (ip), vehicle: Klucel (hydroxypropylcellulose) (HPC)) was 144 % of control.

With `O=C/C=C/c1cc(Cl)ccc1O` the survivor count [1] was 0 of 6.

With `O=S(=O)(O)CS(=O)(=O)O.[Ag]` the survivor count (dose: 80.0 mg/kg/injection, schedule: Q01DX001 (ip), vehicle: saline) was 1 of 6.

For `CCOC(=O)C1C(=O)C2CCc3c(ccc4ccccc34)N2C1=O` (stereo not given), the survivor count [7] was 2 of 6.

In the case of `CCCCCCCC[As](=O)(O)O`, the survivor count (dose: 12.5 mg/kg/injection, schedule: Q01DX001 (ip), vehicle: carboxymethylcellulose (CMC)) was 0 of 4, the survivor count (dose: 25.0 mg/kg/injection, schedule: Q01DX001 (ip), vehicle: carboxymethylcellulose (CMC)) was 0 of 4 and the survivor count (dose: 50.0 mg/kg/injection, schedule: Q01DX001 (ip), vehicle: carboxymethylcellulose (CMC)) was 0 of 4.

With `O=C(O)c1ccc(Br)cc1.[Ni]` the survivor count (dose: 100.0 mg/kg/injection, schedule: Q04DX002 (ip), vehicle: gum acacia) was 1 of 3 and 3 of 3, the survivor count (dose: 200.0 mg/kg/injection, schedule: Q04DX002 (ip), vehicle: gum acacia) was 0 of 3 and the survivor count (dose: 400.0 mg/kg/injection, schedule: Q04DX002 (ip), vehicle: gum acacia) was 0 of 3.

For `N#CCCCC1(CCCC#N)OCCO1`, the survivor count (dose: 100.0 mg/kg/injection, schedule: Q01DX009 (ip), vehicle: saline) was 6 of 6.

With `CCC(C)(C)c1cccc(C(=O)O)c1O` the survivor count (dose: 400.0 mg/kg/injection, schedule: Q01DX001 (ip), vehicle: carboxymethylcellulose (CMC)) was 2 of 4.

In the case of `CN1C(=O)CN=C(c2ccc[nH]2)c2cc(Cl)ccc21` (tested in a mixture with another compound), the survivor count [4] was 0 of 6.

With `COc1ccc(C)cc1NC(=S)NC(=O)c1cccc([N+](=O)[O-])c1` the survivor count (dose: 400.0 mg/kg/injection, schedule: Q01DX001 (ip), vehicle: saline with Tween-80) was 4 of 6.

`NC(CCl)=NCC1C2CC3CC(C2)CC1C3` (stereo not given) was tested, and the survivor count (dose: 40.0 mg/kg/injection, schedule: Q01DX009 (ip), vehicle: saline) was 2 of 3, the survivor count (dose: 100.0 mg/kg/injection, schedule: Q04DX002 (ip), vehicle: saline) was 0 of 3 and the survivor count (dose: 200.0 mg/kg/injection, schedule: Q04DX002 (ip), vehicle: saline) was 0 of 3. The survivor count (dose: 400.0 mg/kg/injection, schedule: Q04DX002 (ip), vehicle: saline) was 0 of 3.

`CC1=CC(C)(C)NC(=S)N1c1cccc([N+](=O)[O-])c1` was tested, and the survivor count (dose: 750.0 mg/kg/injection, schedule: Q01DX Z (ip), vehicle: methylcellulose (MC)) was 6 of 6.

In the case of `CC(=O)Oc1ccc2c(c1)C(=O)CCC=C2`, the survivor count [6] was 3 of 3.

In the case of `CCCCc1cccc2c1OCO2`, the survivor count [1] was 0 of 4.

— PubChem BioAssay AID248 (DTP/NCI, 2004)
